From PMC7801519

Molecular target: T1, Flag-PBK (human) (UniProt Q96KB5)
T1 sequence: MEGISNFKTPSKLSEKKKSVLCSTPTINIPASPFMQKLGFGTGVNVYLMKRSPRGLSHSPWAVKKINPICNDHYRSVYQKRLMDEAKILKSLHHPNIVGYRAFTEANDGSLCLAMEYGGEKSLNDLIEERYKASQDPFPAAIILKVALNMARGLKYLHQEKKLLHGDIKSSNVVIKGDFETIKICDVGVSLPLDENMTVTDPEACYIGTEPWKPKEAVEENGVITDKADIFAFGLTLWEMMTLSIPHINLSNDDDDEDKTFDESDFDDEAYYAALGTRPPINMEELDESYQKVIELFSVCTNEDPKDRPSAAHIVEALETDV
Assay: co-IP; 293T cells co-transfected with Myc-MSL1 and vector, Flag-GFP or Flag-PBK for 36 h; IP lysis buffer (50 mM Tris-Cl pH 7.4, 150 mM NaCl, 0.5% NP-40, 5 mM EDTA); antibodies or Flag-beads overnight at 4 °C; immunoblotting

Q: With Myc-MSL1 (human) as the substance, how does the binding read?
A: binds

No constants are given. Whether binding was seen depends on the method and setting. Binding seen in cells or lysates may run through a third protein. Binding calls can cover weak binding; strength is not graded here. Sequences can lack the tags named with a protein.
